Results from one PubChem assay

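Luminescence from an EWS-FLI1 target-promoter (NR0B1) reporter, set against a CMV-promoter reporter, two days after silencing single genes in TC32 Ewing sarcoma cells.
Each siRNA was applied at 20 nM.
A z-score of the log NR0B1-over-CMV signal, less the median of siRNAs with the same seed; more negative means a stronger specific loss of the NR0B1 reporter.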

The strongest results of the screen are mostly left out here.
Sequences are the guide (antisense) strand, without overhang.

siRNA | target gene | seed-corrected z-score
UACCUAAGCUGACUUAACC | DNAH7 | 0.1407
UUAUAGUCCCUCGAGAUGG | SERPINA3 | 0.3103
UCUUAUUACAUGUAACAGG | RBM34 | 0.004936
UCAGCUAAUAAUCCAUCUG | OAZ2 | -0.4167
UAUCGAAUAACACUGAGGC | MAP1B | -0.008765
AAAUCUUCGGCUACCAUGC | IGF1R | -0.8965
UCUUGGUCCGCAUCAGCUG | RASSF4 | -0.1711
UCAUCGGUGGGAAUCAUCG | FHOD3 | -0.6058
UUAAUUCCCGUGUGAAUCC | ZNF649 | -1.217
UUCUUUACGGGAUCUGAAG | EIF1P3 | -0.1188
UGAAAUCCGACAGCGAAGC | PXN | -0.2132
UGAUCUAAUACAUAGGAGC | SERPINA4 | 0.1457
AUGGGUGUCACCGAUUCCA | LCN1P2 | -1.151
UCCAUUAUCUUCUCGACUC | RABGEF1 | 0.8243
AAAGGUCUGAUACGAAAAG | CRIPAK | 0.3987
UGAGGGUAGAUGGUGUAGU | TMEM174 | -0.325
AUAGUUAUCAAAACUGCAG | FAM124B | -0.2081
ACUCAUGAUAUUUCCAUCC | NDUFAF5 | 0.1186
UUCGGUGACAUCCUCUUCG | SLC22A1 | -0.2731
UCACGAACAACCCGCAUGC | LOC728145 | 0.03971
UUCUCACUCUUGUCUAUCC | SLC39A11 | 0.02255
AACAAUGUAGCUUUUGCGC | ZBTB44 | 0.1727
AUUGUAGCGAAUGCUGACU | SLC31A1 | -0.5297
UUCUCAAAUAGGGAUUGGG | ADRA1D | -0.1153
UCAUGGUUCAUGCCGAAUG | ADAMTS10 | 0.6247
AAGGUUUAGGGUGUACACG | P2RY6 | 0.1447
AAAGGGUAAACAACUCGCC | DKC1 | 0.3243
UGUUAGUCCAGAUUGUUGU | THG1L | 0.02549
UUGCUUCUGACUAGUCUCC | TIMM50 | -1.362
UCCCUGAUUGAGGAUGUCC | GLYR1 | 0.4373
ACACGUACUAUUUAGUCUC | ANO5 | -0.7589
UUUCGUACCUGCUUAACUG | HAUS6 | -0.2637
UACCGCUGAAUUACAUACG | COQ4 | 0.3045
UAGCAGGUGCGUUCACAUC | RPS3AP5 | -0.6419
UGACUAACAACCAAUCAUC | OOSP1 | 1.287
UUUUCUUUAUUCUCGUUUG | CCDC125 | 0.1517
UCUUCGACUGCAUCUUUUC | DCD | 0.1143
ACCGUUACCAGACUUGCUC | DSPP | 0.1918
AAGCUUACUAGACUAUUUC | PDE7A | -1.457
ACAAGGACAACAUCUGACC | SLC35F2 | 1.067
UAAGGUACUGAAGCGAGGG | GCLC | -0.1997
UUACUUUCAUUCUACGUUC | PSMC1 | 0.243
GUCCUCGUCGUAAUCAUCG | KCNG4 | 0.07837
UUUCUGUACACCUGAGAGC | LRRC56 | 0.7549
UCUUCUUGGAAUGAUCACC | ISL2 | -0.646
UUCUUAAUAAAAGUGCCUG | LOC342293 | -1.652

Data taken from PubChem BioAssay AID1159506, deposited by NCATS (2015).